PubChem BioAssay AID686943 | Drosophila RNAi Screening Center – 2013
In all, the deposit lists about 23,000 reagents; this is a random part of those that have a named target and a result. 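Extra replicates exist only for a retested subset of genes; insulin dose and duration not given; both raised and lowered dpERK matter.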 The record does not give: the amount of reagent, the time to read-out.

Test: 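Search across the genome for regulators of signalling from receptor tyrosine kinase to ERK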 (primary screen)
Cells: Drosophila S2R+ haemocyte-like cells expressing YFP-tagged ERK (Rolled)
Reagent: long dsRNA against Drosophila genes
Conditions: insulin stimulation versus unstimulated cells; dose and duration not given
Detection: 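Antibody staining for doubly phosphorylated ERK divided by ERK-YFP signal, as plate z-scores, in insulin-treated and untreated cells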
Direction: replicate 1, z-score of dpERK with insulin and replicate 2, z-score of dpERK with insulin: higher = more active ERK per ERK-YFP after insulin; replicate 1, z-score of dpERK under basal conditions: higher = more basal active ERK per ERK-YFP; replicate 1, z-score of ERK-YFP with insulin: higher = more YFP-tagged ERK signal

| replicate 1, z-score of dpERK with insulin | replicate 2, z-score of dpERK with insulin | replicate 1, z-score of dpERK under basal conditions | replicate 1, z-score of ERK-YFP with insulin | Gene | amplicon |
| --- | --- | --- | --- | --- | --- |
| 1.02 | 0.68 | 0.09 | -0.88 | CG5180 | DRSC15731 |
| 0.55 | 0.19 | -0.02 | 0.25 | Oatp74D | DRSC09491 |
| 0.04 | 0.57 | 0.52 | 0.38 | Oatp74D | DRSC10883 |
| 1.39 | -0.97 | -0.83 | -0.58 | grass | DRSC15911 |
| -0.04 | 1.13 | -0.85 | 0.62 | REPTOR | DRSC14626 |
| -0.3 | 0.84 | 2.03 | -0.21 | b6 | DRSC18740 |
| -1.02 | -0.38 | -0.54 | -0.32 | CG9933 | DRSC03276 |
| 0.28 | -0.2 | 1.67 | 0.55 | cuff | DRSC06315 |
| 2.78 | 1.66 | 0.02 | -3.45 | lilli | DRSC00708 |
| 0.92 | 0.48 | -0.6 | 0.43 | CG1840 | DRSC19806 |
| 1.03 | 0.71 | 0.27 | 0.28 | CG14380 | DRSC14840 |
| 1.29 | 0.34 | 2.14 | 0.61 | ppk8 | DRSC17269 |
| 1.79 | 1.46 | -1.42 | 0.42 | CycK | DRSC03714 |
| 0.83 | 0.71 | 0.48 | -0.55 | CG34462 | DRSC10768 |
| 0.33 | -0.17 | -0.73 | 1.01 | CG14322 | DRSC14801 |
| 0.89 | 0.72 | 1.35 | 0.62 | Rab3-GEF | DRSC19954 |
| 0.39 | 1.48 | 0.61 | 0.32 | Rab3-GEF | DRSC19955 |
| -1.37 | -3.51 | -2.54 | 2.27 | Rab3-GEF | DRSC19956 |
| -0.19 | 0.33 | -0.08 | 0.45 | pwn | DRSC06035 |
| 0.72 | 0.71 | 0.1 | -0.11 | CG8539 | DRSC10988 |
| -0.15 | -0.27 | -0.16 | 0.9 | CG8539 | DRSC21798 |
| 1.11 | -0.26 | 0.65 | -0.02 | Mmp2 | DRSC06698 |
| 0.12 | 1.37 | -0.36 | -0.05 | Mmp2 | DRSC22024 |
| 0.03 | -0.08 | 0.14 | 0.17 | CG11980 | DRSC14456 |
| -0.17 | 0.86 | -0.36 | 0.18 | Vha13 | DRSC16895 |
| -0.21 | -0.53 | 0.53 | 0.95 | CG12783 | DRSC14538 |
| 0.15 | 2.36 | -0.39 | 1.68 | CG14454 | DRSC11711 |
| -1.1 | -2.5 | -1.76 | -0.46 | Cul4 | DRSC07243 |
| -0.96 | 0.36 | 0.72 | -0.01 | CG43755 | DRSC00012 |
| 0.27 | -1.66 | -0.25 | 0.23 | CG31326 | DRSC16532 |
| -0.23 | 0.06 | -0.07 | -0.04 | Smvt | DRSC15426 |
| -0.08 | 0.3 | 0.41 | 0.3 | san | DRSC07695 |
| 1.28 | -0.12 | -0.51 | 0.07 | CG32813 | DRSC17948 |
| 0.08 | -0.31 | 0.02 | 0.22 | gcl | DRSC07623 |
| 0.11 | -1.66 | 0.21 | 0.95 | ATPsynG | DRSC02928 |
| 0.51 | 0.75 | -0.39 | 0.69 | PCNA2 | DRSC02030 |
| -0.76 | 0 | 3.85 | 0.16 | pins | DRSC17043 |
| -0.58 | -0.05 | -0.39 | 0.03 | CG30380 | DRSC05069 |
| -0.36 | 0.65 | -0.9 | 0.95 | CG4968 | DRSC02794 |

Ordered by “replicate 1, z-score of ERK-YFP with insulin” (lowest first): some entries from above
| replicate 1, z-score of dpERK with insulin | replicate 2, z-score of dpERK with insulin | replicate 1, z-score of dpERK under basal conditions | replicate 1, z-score of ERK-YFP with insulin | Gene | amplicon |
| --- | --- | --- | --- | --- | --- |
| -0.23 | 0.06 | -0.07 | -0.04 | Smvt | DRSC15426 |
| 1.28 | -0.12 | -0.51 | 0.07 | CG32813 | DRSC17948 |
| 0.08 | -0.31 | 0.02 | 0.22 | gcl | DRSC07623 |
| -0.08 | 0.3 | 0.41 | 0.3 | san | DRSC07695 |
| 0.51 | 0.75 | -0.39 | 0.69 | PCNA2 | DRSC02030 |
| 0.11 | -1.66 | 0.21 | 0.95 | ATPsynG | DRSC02928 |
